No constants are given. Whether binding was seen depends on the method and setting. In cells and extracts the contact can be indirect. Some results given as binding are weak or reduced against the parent protein; the word gives no strength.
Assays:
[1] = target: green fluorescent protein (GFP)-tagged mouse HP1β (heterochromatin protein 1β) (mouse) (UniProt P83917); experiment: coimmunoprecipitation
[2] = target: green fluorescent protein (GFP)-tagged mouse HP1β (heterochromatin protein 1β) (mouse) (UniProt P83917); experiment: coimmunoprecipitation (legend of FIG. 4C)
[3] = target: green fluorescent protein (GFP)-tagged mouse HP1β (heterochromatin protein 1β) (mouse) (UniProt P83917); experiment: coimmunoprecipitation with anti-Flag from lysate of cotransfected MGC803 cells; Western blot with anti-GFP

Sequences of proteins named here, by UniProt entry; tags and fusion partners are left off. A change or cut given only in a name is not applied to a line headed by its entry.
UniProt P83917: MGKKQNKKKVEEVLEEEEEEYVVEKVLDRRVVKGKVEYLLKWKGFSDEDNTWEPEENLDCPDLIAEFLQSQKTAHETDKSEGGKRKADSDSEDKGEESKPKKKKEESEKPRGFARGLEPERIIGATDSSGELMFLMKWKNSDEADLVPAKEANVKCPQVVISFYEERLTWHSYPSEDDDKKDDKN
UniProt Q8N141: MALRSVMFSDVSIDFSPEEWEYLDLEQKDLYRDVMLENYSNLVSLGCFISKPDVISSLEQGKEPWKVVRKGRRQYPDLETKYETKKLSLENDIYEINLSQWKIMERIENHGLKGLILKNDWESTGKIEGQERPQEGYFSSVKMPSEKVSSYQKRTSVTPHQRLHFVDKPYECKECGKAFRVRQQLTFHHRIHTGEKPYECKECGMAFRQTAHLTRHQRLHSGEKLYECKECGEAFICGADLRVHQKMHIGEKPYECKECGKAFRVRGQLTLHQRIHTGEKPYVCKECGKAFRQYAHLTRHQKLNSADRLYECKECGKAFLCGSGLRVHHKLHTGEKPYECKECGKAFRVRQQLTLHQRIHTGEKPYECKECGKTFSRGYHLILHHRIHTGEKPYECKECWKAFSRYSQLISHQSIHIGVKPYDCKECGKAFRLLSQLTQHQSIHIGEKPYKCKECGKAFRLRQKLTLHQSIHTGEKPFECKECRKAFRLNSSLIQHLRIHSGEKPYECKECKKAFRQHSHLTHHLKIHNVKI

Measured: binding

Flag-ZNF545 (Flag-tagged full-length human zinc-finger protein 545) (from UniProt Q8N141 1-532)
binds: all assays above

Reference: patent US20140274753A1
